No constants are given. Whether binding was seen depends on the method and setting. In cells and extracts the contact can be indirect. Binding calls can cover weak binding; strength is not graded here.
Molecular target: T1, zebrafish Hspb8 (zebrafish (endogenous in 120 hpf larvae)) (UniProt Q6PFS1)
T1 sequence: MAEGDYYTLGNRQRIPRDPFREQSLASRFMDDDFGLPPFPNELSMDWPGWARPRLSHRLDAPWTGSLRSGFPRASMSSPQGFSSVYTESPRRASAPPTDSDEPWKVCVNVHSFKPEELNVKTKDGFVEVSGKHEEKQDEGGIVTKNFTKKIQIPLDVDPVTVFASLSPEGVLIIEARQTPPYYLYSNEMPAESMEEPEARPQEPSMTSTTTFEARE
Experiment: co-IP; Pierce Co-IP kit; anti-Hspb8 or anti-Bag3 antibody covalently coupled to amine-reactive resin, resin only as negative control; lysate of 30 heat-shocked 120 hpf zebrafish larvae; eluates read by Western blot

binding	Substance
no binding	LC3 I/II (zebrafish (endogenous in 120 hpf larvae))
binds	zebrafish Bag3 (Bcl2-associated athanogene 3)
